In article PMC5414047 one finds binding data, which are given here for 2 substances.

By UniProt entry, the sequences of proteins in these tests, tags left out. Where a name states a change or a piece, a line headed by the entry shows the natural chain unless it says otherwise. Residues count along the entry.
UniProt Q9UNN5: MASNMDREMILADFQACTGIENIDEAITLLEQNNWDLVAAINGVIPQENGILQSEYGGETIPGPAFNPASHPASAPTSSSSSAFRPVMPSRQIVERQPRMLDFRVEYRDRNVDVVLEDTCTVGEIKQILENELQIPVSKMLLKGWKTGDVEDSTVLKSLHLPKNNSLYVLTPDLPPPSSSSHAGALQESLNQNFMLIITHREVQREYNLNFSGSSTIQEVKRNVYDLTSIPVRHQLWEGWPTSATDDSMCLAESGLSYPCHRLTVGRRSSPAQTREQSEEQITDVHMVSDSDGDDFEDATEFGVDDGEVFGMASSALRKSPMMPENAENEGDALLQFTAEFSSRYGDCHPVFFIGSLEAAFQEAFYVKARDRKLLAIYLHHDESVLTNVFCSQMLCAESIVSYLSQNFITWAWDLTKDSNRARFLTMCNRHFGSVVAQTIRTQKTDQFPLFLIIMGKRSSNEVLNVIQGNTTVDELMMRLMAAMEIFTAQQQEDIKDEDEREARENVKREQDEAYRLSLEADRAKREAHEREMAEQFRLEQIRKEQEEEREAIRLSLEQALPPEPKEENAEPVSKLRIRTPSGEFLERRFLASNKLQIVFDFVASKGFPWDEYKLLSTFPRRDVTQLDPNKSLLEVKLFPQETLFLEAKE
UniProt P37173, residues 23-567: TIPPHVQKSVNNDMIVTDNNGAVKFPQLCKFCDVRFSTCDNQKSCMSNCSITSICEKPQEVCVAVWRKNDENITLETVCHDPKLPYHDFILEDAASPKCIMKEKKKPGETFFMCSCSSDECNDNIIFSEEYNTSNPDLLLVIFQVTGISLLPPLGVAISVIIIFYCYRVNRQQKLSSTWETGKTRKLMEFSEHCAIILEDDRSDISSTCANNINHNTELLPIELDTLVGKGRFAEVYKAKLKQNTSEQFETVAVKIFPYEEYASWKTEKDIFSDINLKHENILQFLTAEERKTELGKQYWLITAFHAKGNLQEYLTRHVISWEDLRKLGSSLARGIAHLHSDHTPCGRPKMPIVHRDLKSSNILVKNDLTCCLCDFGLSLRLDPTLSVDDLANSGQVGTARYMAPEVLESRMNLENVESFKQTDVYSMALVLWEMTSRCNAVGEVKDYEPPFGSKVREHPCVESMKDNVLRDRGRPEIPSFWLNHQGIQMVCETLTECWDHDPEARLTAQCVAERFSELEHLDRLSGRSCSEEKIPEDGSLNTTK

Test [1] addresses Flag-FAF1 from Myr-AKT-expressing cells (phosphorylated by AKT at Ser 582) (UniProt Q9UNN5). In words: co-IP; HEK293T cells transfected with Flag-FAF1 and Myr-HA-AKT; immunoprecipitants and total cell lysate immunoblotted. In general terms: In western blotting, separated proteins are transferred to a membrane and probed.
For the next test, the target named is Flag-FAF1 S582A (UniProt Q9UNN5). In words: co-IP; HEK293T cells transfected with Flag-FAF1 wt/S582A/S582D; immunoprecipitants and total cell lysate immunoblotted.
Test [2] has as its target TGF-β type II serine/threonine kinase receptor (TβRII), endogenous (human (endogenous in MCF10A-RAS and HEK293T)) (UniProt P37173). Put plainly: co-IP; endogenous proteins, non-transfected MCF10A-RAS cells treated with NH4Cl (25 mM); limiting amounts of TβRII antibody; non-specific antibody as control.

Results are given in words; binding and its absence hold for the method and conditions named. In cells and extracts the contact can be indirect. Some binding calls cover weakened binding; strength is not graded here.

Regarding “TGF-β type II serine/threonine kinase receptor (TβRII), endogenous (from UniProt P37173 23-567)”, the results for the binding entry (in test [1]; with Flag-FAF1 S582A) were “binds weakly” and “binds”, respectively. Regarding “FAS-associated factor 1 (FAF1), endogenous (from UniProt Q9UNN5 1-650)”, in test [2], the binding result is on record as “binds”.
